Some of the results follow. Many values rest on one well or one pass, so single values are uncertain.
How the values were obtained:
[1] = tested on: MEPP (mouse ovarian epithelium Trp53/Pten KO); test: cell viability relative to untreated (fraction); higher = less growth inhibition; settings: 5 µM; 3 days
[2] = tested on: PREPP (mouse prostate epithelium Trp53/Pten KO); test: as above; settings: 5 µM; 3 days

Compound | cell viability [1] | cell viability [2]
CC1(C)CC[C@]2(C(=O)O)CC[C@]3(C)C(=CC[C@@H]4[C@@]5(C)C[C@@H](O)[C@H](O)C(C)(C)[C@@H]5CC[C@]43C)[C@@H]2C1 | 1.08 | 0.899
COc1ccc2ccc(=O)oc2c1 | 0.933 | 1.07
C/C=C1/[C@H](O[C@@H]2O[C@H](CO)[C@@H](O)[C@H](O)[C@H]2O)OC=C(C(=O)OC)[C@H]1CC(=O)OCCc1ccc(O)c(O)c1 | 1.14 | 1.27
O=C1CC[C@@H](C(=O)O)N1 | 1.03 | 1.04
O=C(O)[C@H]1CCCCN1 | 1.04 | 0.984
C[C@@H]1C[C@H]2[C@@H]3CCC4=CC(=O)C=C[C@]4(C)[C@@]3(F)[C@@H](O)C[C@]2(C)[C@@]1(O)C(=O)CO | 1.23 | 0.906
COc1ccc(-c2cc(=O)c3c(O)c(OC)c(O)cc3o2)cc1OC | 0.814 | 0.865
O=C(O)c1ccc(Cl)cc1O | 0.991 | 0.973
C[N+]1(C)CCCC1C(=O)O (stereo not given) | 0.934 | 0.733
Cn1c(=O)c2[nH]cnc2n(C)c1=O | 1.02 | 0.948
COc1ccc(/C=C/C(=O)/C=C(O)/C=C/c2ccc(OC)c(OC)c2)cc1OC | 0.918 | 0.535
COc1cc(CC(=O)O)ccc1O | 1.46 | 1.06
C[C@@H](O)[C@H]1C(=O)N2C(C(=O)[O-])=C(SC3Cn4cnc[n+]4C3)[C@H](C)[C@H]12 (stereo not given in full) | 1.11 | 0.765
CC(C)=CCO | 1.08 | 0.986
O=C(OC[C@H]1O[C@@H](OC(=O)c2cc(O)c(O)c(O)c2)[C@H](OC(=O)c2cc(O)c(O)c(O)c2)[C@@H](OC(=O)c2cc(O)c(O)c(O)c2)[C@@H]1OC(=O)c1cc(O)c(O)c(O)c1)c1cc(O)c(O)c(O)c1 | 1.08 | 0.82
O=C(O)[C@@H]1C[C@@H](O)CN1 | 0.93 | 1.05
CC(C)C(O)C(=O)O (stereo not given) | 1.06 | 1.04
Nc1ncnc2c1ncn2[C@H]1C[C@H](O)[C@@H](CO)O1 | 0.839 | 0.999

3 structures out of the list, ordered by SMILES length, rising:
Compound | cell viability [1] | cell viability [2]
O=C(O)[C@@H]1C[C@@H](O)CN1 | 0.93 | 1.05
COc1ccc(/C=C/C(=O)/C=C(O)/C=C/c2ccc(OC)c(OC)c2)cc1OC | 0.918 | 0.535
O=C(OC[C@H]1O[C@@H](OC(=O)c2cc(O)c(O)c(O)c2)[C@H](OC(=O)c2cc(O)c(O)c(O)c2)[C@@H](OC(=O)c2cc(O)c(O)c(O)c2)[C@@H]1OC(=O)c1cc(O)c(O)c(O)c1)c1cc(O)c(O)c(O)c1 | 1.08 | 0.82

(cont.)

Compound | cell viability [1] | cell viability [2]
CC1=CC[C@@](O)(C(C)C)CC1 | 1.16 | 1.02
C=C1CC[C@H](O)C/C1=C/C=C1\CCC[C@]2(C)[C@@H]([C@H](C)/C=C/[C@H](C)C(C)C)CC[C@@H]12 | 1.03 | 1.06
C=C1CC[C@H]2O[C@]2(C)CC[C@@H]2[C@@H]1CC2(C)C | 0.853 | 0.859
O=C1C[C@@H](C(=O)O)NC(=O)N1 | 0.955 | 0.956
O=C(O)c1ccco1 | 0.828 | 0.951
COC(=O)/C=C/C(=O)OC | 0.984 | 0.833
Cc1nnc(SCC2=C(C(=O)O)N3C(=O)[C@@H](NC(=O)Cn4cnnn4)[C@H]3SC2)s1 | 1.11 | 0.888
O=C(O)CC(=O)O | 0.889 | 0.975
CC(/C=C/C=C(\C)C(=O)O[C@@H]1O[C@H](CO[C@@H]2O[C@H](CO)[C@@H](O)[C@H](O)[C@H]2O)[C@@H](O)[C@H](O)[C@H]1O)=C\C=C\C=C(C)\C=C\C=C(/C)C(=O)O[C@@H]1O[C@H](CO[C@@H]2O[C@H](CO)[C@@H](O)[C@H](O)[C@H]2O)[C@@H](O)[C@H](O)[C@H]1O | 1.07 | 0.956
N[C@@H](Cc1ccc(O)c(I)c1)C(=O)O | 0.855 | 1.32
O=C(O)c1cc(/N=N/c2ccc(O)c(C(=O)O)c2)ccc1O | 1.22 | 1.09
C=C1C(=O)[C@]23[C@H](O)[C@H]1CC[C@H]2[C@@]12CO[C@]3(O)[C@@H](O)[C@@H]1C(C)(C)CC[C@@H]2O | 0.637 | 0.71
CCCCCCCCCCCCCCCCCC(=O)O | 0.911 | 0.871
O=c1oc2cc(O)ccc2c2ccc(O)cc12 | 0.889 | 0.996
O=C(/C=C/c1ccc(O)c(O)c1)O[C@@H]1C[C@@](O)(C(=O)O)C[C@@H](O)[C@@H]1O | 1.25 | 1.25
CCCCCCCCCC(=O)N[C@H]1[C@H](Oc2c3cc4cc2Oc2ccc(cc2Cl)[C@@H](O[C@@H]2O[C@H](CO)[C@@H](O)[C@H](O)[C@H]2NC(C)=O)[C@@H]2NC(=O)[C@H](NC(=O)[C@@H]4NC(=O)[C@H]4NC(=O)[C@@H](Cc5ccc(c(Cl)c5)O3)NC(=O)[C@H](N)c3ccc(O)c(c3)Oc3cc(O)cc4c3)c3ccc(O)c(c3)-c3c(OC4O[C@H](CO)[C@@H](O)[C@H](O)[C@@H]4O)cc(O)cc3[C@@H](C(=O)O)NC2=O)O[C@H](CO)[C@@H](O)[C@@H]1O (stereo not given in full) | 1.01 | 0.888
COc1cc(CNC(=O)CCCCCCC(C)C)ccc1O | 0.93 | 0.953
